Values joined by “and” are separate entries in the source; they are usually repeats but may differ in a detail not shown here. Equal values may be shown once. Inconclusive means that the source gave no clear call. Such entries were picked first, then a sample of the others. Potencies beside an inconclusive call are fits to weak or partial responses and may not hold up. Active and inactive are the calls of the source. Calls follow the shape of the dose curve; as a rule, active = well fitted curve in the direction sought with a large enough effect; inconclusive = small, poorly fitted or top-dose-only effect, or another doubt; inactive = no such curve, though single readings can be large; an effect the other way counts as inactive or inconclusive.
Legend:
[1] = Identifying Small Molecule Inhibitors of Pancreatic Cancer Stem Cells (Panc1, Adherent) (AID 1259362); details: Potency: viability unless noted; series mostly up to 46.1 µM
Procedure, shortened: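 Adherent (2D) versus sphere (3D) formats; spheres generated 14 d in SCM beforehand. Compound transferred by pin tool after 4 h, 48 h incubation, CellTiter-Glo endpoint.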

[2] = P-glycoprotein substrates identified in KB-8-5-11 adenocarcinoma cell line, qHTS therapeutic library screen (AID 1346987); also: nearly all actives have a fitted effect of over 65% in size
Procedure, shortened: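 In this qHTS, P-gp-rich KB-8-5-11 cells received library compounds across a concentration range. Viability was quantified by luminescence after 72 h at 37 degree C.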

[3] = NS1 protein of Zika virus - qHTS assay to identify small molecule inhibitors in human HEK 293 cells (AID 1347053); also: nearly all actives have a fitted effect of over 55% in size
Procedure, shortened: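 TR-FRET signal from two anti-ZIKV NS1 antibodies quantified NS1 in HEK 293 cells 24 h after MR766 infection at MOI = 0.5; compounds were added 1 h before virus. Uninfected cells and infected cells defined the NS1 normalization range.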
Potency is read from the fitted curve at half-maximal effect.

| SMILES | Potency [1] | Potency [2] | Potency [3] |
| --- | --- | --- | --- |
| CCOc1cc(C(=O)Nc2ccc(Cl)c(-c3nc4ccccc4[nH]3)c2)cc(OCC)c1OCC | inactive | inconclusive: 20.9 µM [inhibitor, partial curve] and inconclusive: 23.1 µM [inhibitor, single point] |  |
| CC(C)c1ccccc1Cc1cc(C(=O)Nc2ccc(S(=O)(=O)c3ccccc3C(C)(C)C)cc2)c(O)c(O)c1O | inconclusive: 13.2 µM [cytotoxic, partial curve] | active: 9.35 µM | inconclusive: 37.2 µM [inhibitor, single point] |
| N#CC[C@H](C1CCCC1)n1cc(-c2ncnc3[nH]ccc23)cn1 | inconclusive: 0.001 µM | active: 26.4 µM and inconclusive: 20.6 µM [inhibitor, single point] |  |
| Cc1c(C(=O)Nc2ccc(N3C[C@@H](C)O[C@@H](C)C3)nc2)cccc1-c1ccc(OC(F)(F)F)cc1 | inconclusive: 16.6 µM [cytotoxic, partial curve, poor fit] | inconclusive: 8.33 µM [inhibitor, single point] |  |
| NC(=O)Nc1cc(-c2cccc(F)c2)sc1C(=O)N[C@H]1CCCNC1 | active: 1.48 µM | active: 14.8 µM and active: 7.31 µM | active: 0.264 µM |
| OC[C@H](Cc1ccccc1)Nc1nc(Oc2ccc3c(c2)CCC3)nc2c1ncn2Cc1ccc(-c2ccccc2)cc1 | active: 1.32 µM | inconclusive: 26.4 µM [inhibitor, single point] | active: 4.18 µM |

Reference: PubChem BioAssay (NCATS)
